Assay: general procedure: Fmoc solid-phase peptide synthesis; Rink amide-functionalised aminomethyl polystyrene (1% DVB, 100–200 mesh, loading 1.2 mmol/g); DIC/Oxyma
Conditions: whole synthesis, ELSD

Substance | final purity (method not given)
Asp-Ala-Pro-Asp | 95%
Asp-Ala-Val-Asp | 99%
Asp-Asn-Pro-Asp | 94%
Asp-Asn-Val-Asp | 98%
Asp-Gly-Pro-Asp | 93%
Asp-Gly-Val-Asp | 97%
Asp-Leu-Pro-Asp | 90%
Asp-Leu-Val-Asp | 96%
Asp-Pro-Val-Asp | 93%
Asp-Val-Pro-Asp | 100%
Asp-Val-Val-Asp | 99%
DLPD-Ahx-K(Me) | 100%

— PMC4864350 (PLoS ONE, 2016)
